Values quoted from earlier work, collected in patent publication US11923581B2, “Aqueous redox flow battery electrolytes with high chemical and electrochemical stability, high water solubility, low membrane permeability” (President and Fellows of Harvard College, priority 2016, dated 2024).
For at least one compound, name, drawing or mass did not settle the structure.

Conditions: cited from earlier work

SMILES: C[n+]1ccc(-c2cc[n+](C)cc2)cc1 [MV diiodide, methyl viologen]
- association constant of radical dimerization: 385 M⁻¹
